Reference: patent US4386073A, “Tripeptides acting on the central nervous system and a process for the preparation thereof” (Patentbureau DANUBIA, priority 1979, dated 1983)
Where a SMILES comes first, the peptide text is derived from it. [ ]: non-standard residue; d: D form. d(pGlu) = O=C1CC[C@H](C(=O)O)N1

System: Haloperidol-induced catalepsy
Assay: Inhibition of Haloperidol-induced catalepsy on rats
Assay type: in vivo, rat (male Wistar)
Settings: observation time after i.v. treatment belonging to the ED50
Method: (1) Inhibition of Haloperidol-induced catalepsy on rats (see J. Delay and P. Deniker: Compt. Rend. Congr. Med. Alenistes Neurologistes, 19, 497, Luxembourg, 1952)
The tests were performed on male Wistar rats weighing 160 to 180 g.
40 mg/kg of 4-(p-chlorophenyl)-1-(3-/p-fluorobenzoyl/-propyl)-piperidin-4-ol (Haloperi dol) were administered subcutaneously into the animals, and 120 minutes after this treatment the animals were checked for the appearance of catalepsy. The rats were divided into groups of 10 animals each, and treated intravenously with TRH or the new TRH analogues. The animals belonging to the control group received physiological saline. The catalepsy-suspending effects of the individual compounds were determined 15, 30, 60, 90 and 120 minutes after the treatment. The animals that had not changed their position for 30 seconds after placing their fore-paw onto a 7 cm high column were regarded as cataleptic.

SMILES	Inhibition of Haloperidol catalepsy, time
CC(C)C[C@H](NC(=O)C1CCCC(=O)N1)C(=O)N1CCC[C@H]1C(N)=O (stereo partly drawn) [Kpc Leu Pro, L-6-ketopiperidine-2-carbonyl-L-leucyl-L-prolinamide]	60 min
NC(=O)[C@@H]1CCCN1C(=O)[C@H](Cc1c[nH]cn1)NC(=O)[C@@H]1CCC(=O)N1 [TRH, L-pyroglutamyl-L-histidyl-L-prolinamide, reference compound]	15 min
CC(C)C[C@H](NC(=O)[C@H]1CCC(=O)N1)C(=O)N1CCC[C@H]1C(N)=O [D-Glp Leu Pro, D-Pyroglutamyl-L-leucyl-L-prolinamide] ([d(pGlu)]-Leu-Pro-NH2)	15 min
CCC[C@H](NC(=O)C1CCCC(=O)N1)C(=O)N1CCCC[C@H]1C(N)=O (stereo partly drawn) [Kpc Nva HPro, L-6-Ketopiperidine-2-carbonyl-L-norvalyl-L-homoprolinamide]	15 min
CC(C)C[C@H](NC(=O)C1CNC(=O)N1)C(=O)N1CCC[C@H]1C(N)=O (stereo partly drawn) [Kic Leu Pro, L-2-Ketoimidazolidine-4-carbonyl-L-leucyl-L-prolinamide]	30 min
CCC[C@H](NC(=O)C1CCCC(=O)N1)C(=O)N1CCC[C@H]1C(N)=O (stereo partly drawn) [Kpc Nva Pro, L-6-Ketopiperidine-2-carbonyl-L-norvalyl-L-prolinamide]	30 min
